This is an account of results in publication PMC10338684.

These are yes or no findings as the source states them, for the method shown. For some assays here: Binding seen in cells or lysates may run through a third protein. Some results given as binding are weak or reduced against the parent protein; the word gives no strength. Where a sequence is shown, tags or fusion partners need not be part of it.

Assay [1] deals with T1, MOM1 CMM2 domain (aa1660-aa1860), yeast two-hybrid fusion (Arabidopsis thaliana) (UniProt Q9M658).
T1 sequence: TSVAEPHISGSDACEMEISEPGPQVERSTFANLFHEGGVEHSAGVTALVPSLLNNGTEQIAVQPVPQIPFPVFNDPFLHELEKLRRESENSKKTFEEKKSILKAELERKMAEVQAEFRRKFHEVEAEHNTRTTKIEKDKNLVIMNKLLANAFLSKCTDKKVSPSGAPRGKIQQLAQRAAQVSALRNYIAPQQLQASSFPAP
Kind of assay: two-hybrid; Gal4-BD (pGBKT7-GW) and Gal4-AD (pGADT7-GW) fusions co-transformed into yeast AH109; growth on SD-TLH with 5 mM 3AT after 2-3 days.

Assay [2] addresses T2, MORC6, yeast two-hybrid fusion (Arabidopsis thaliana) (UniProt Q56Y74).
T2 sequence: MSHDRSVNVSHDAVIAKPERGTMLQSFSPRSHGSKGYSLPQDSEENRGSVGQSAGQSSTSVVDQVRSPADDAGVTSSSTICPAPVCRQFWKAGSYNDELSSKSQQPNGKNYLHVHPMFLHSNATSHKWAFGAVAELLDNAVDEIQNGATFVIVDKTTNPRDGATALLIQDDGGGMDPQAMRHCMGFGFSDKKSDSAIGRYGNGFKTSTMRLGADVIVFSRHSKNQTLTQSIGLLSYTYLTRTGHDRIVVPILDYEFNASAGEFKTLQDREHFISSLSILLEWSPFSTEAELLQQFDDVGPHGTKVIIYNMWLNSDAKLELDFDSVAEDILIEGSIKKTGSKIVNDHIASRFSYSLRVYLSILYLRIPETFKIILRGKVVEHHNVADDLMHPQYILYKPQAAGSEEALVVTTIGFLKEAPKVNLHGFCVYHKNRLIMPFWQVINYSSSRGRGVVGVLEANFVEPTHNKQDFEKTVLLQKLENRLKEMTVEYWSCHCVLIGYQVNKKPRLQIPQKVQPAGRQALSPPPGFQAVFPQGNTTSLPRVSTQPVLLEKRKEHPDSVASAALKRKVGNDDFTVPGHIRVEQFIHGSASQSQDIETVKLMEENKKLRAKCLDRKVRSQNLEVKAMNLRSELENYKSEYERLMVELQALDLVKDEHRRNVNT
The description is as above.

Assay [3] has as its target T3, MORC6-FLAG (Arabidopsis thaliana) (UniProt Q56Y74).
T3 sequence: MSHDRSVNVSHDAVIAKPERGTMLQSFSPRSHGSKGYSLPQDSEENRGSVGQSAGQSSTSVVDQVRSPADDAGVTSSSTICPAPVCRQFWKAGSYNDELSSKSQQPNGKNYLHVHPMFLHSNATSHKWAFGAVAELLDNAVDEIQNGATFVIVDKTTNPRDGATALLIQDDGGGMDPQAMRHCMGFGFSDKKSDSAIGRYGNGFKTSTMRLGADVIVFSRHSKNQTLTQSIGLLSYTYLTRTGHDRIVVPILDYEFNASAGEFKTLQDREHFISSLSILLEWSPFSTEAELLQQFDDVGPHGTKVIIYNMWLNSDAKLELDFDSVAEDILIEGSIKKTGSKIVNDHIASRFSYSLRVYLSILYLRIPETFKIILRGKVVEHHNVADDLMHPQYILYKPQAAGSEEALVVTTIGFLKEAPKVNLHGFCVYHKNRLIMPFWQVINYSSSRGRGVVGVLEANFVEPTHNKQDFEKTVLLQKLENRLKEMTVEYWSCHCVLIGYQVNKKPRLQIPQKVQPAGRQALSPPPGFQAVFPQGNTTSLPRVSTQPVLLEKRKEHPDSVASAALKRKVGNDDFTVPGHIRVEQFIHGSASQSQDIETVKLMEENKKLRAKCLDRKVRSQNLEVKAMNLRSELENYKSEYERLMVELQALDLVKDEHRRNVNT
Kind of assay: co-IP; 2-week-old seedlings of MORC6-FLAG X PIAL2-Myc F1, PIAL2-Myc plants as control; anti-FLAG M2 affinity gel, 4 °C, 2 h; eluted with 3xFLAG peptide; western blot with anti-Myc and anti-FLAG. For orientation: In western blotting, separated proteins are transferred to a membrane and probed.

B1: PIAL2, yeast two-hybrid fusion (protein, UniProt F4JYG0 1-760)
chain: MSTAAAARPVAGTGLREKTAASLVNSFRLASVTQRLRYHIQDGAKVDPKEFQICCISFAKGIDFAIANNDIPKKVEEFPWLLKQLCRHGTDVYTKTALMVLMISVKHACHLGWFSDSESQELIALADEIRTCFGSSGSTSPGIKSPGSTFSQIMERFYPFVKLGHVLVSFEVKAGYTMLAHDFYISKNMPHSLQEKIRLFVAQTDNIDTSACISNPPEVSFLLNGKGVEKRVNIAMDTGPQLPTNVTAQLKYGTNLLQVMGNFKGNYIIIIAFTGLVVPPEKPVLKDYLQSGVIEASPDSDIIEGPSRVSLSCPISRKRIKLPVKGQLCKHLQCFDFSNYVHINMRNPTWRCPHCNQPVCYPDIRLDQNMAKILKDVEHNAADVIIDAGGTWKVTKNTGETPEPVREIIHDLEDPMSLLNSGPVVFDLTGDDDAELEVFGDNKVEDRKPCMSDAQGQSNNNNTNKHPSNDDYSSIFDISDVIALDPEILSALGNTAPQPHQASNTGTGQQYSNLSQIPMSIDPMPVPVPFSQTPSPRDRPATTSTVFTIPNPSPQYSQVHASPVTPTGTYLGRTTSPRWNQTYQSQAPPMTTPYTSRKVSVPVTSQSPANVSSFVQSQHVPRVLSQPNNYGVRGLTSSHASTSRQHPSGPTVQSVSRLSDLVDVDLTVPDTSNWRPRMRGSLVPGSHSTALDHMIIRPSQQSQTSTRLNSSQPVQTPSVQTSQAQSPFTTAAYRTETVLGNRNHPVPAPPGIVRPTGPTS
Take B1: the binding result in assay [1] and in assay [2] was “binds” throughout.

B2: PIAL2-Myc (protein, UniProt F4JYG0 1-760)
chain: MSTAAAARPVAGTGLREKTAASLVNSFRLASVTQRLRYHIQDGAKVDPKEFQICCISFAKGIDFAIANNDIPKKVEEFPWLLKQLCRHGTDVYTKTALMVLMISVKHACHLGWFSDSESQELIALADEIRTCFGSSGSTSPGIKSPGSTFSQIMERFYPFVKLGHVLVSFEVKAGYTMLAHDFYISKNMPHSLQEKIRLFVAQTDNIDTSACISNPPEVSFLLNGKGVEKRVNIAMDTGPQLPTNVTAQLKYGTNLLQVMGNFKGNYIIIIAFTGLVVPPEKPVLKDYLQSGVIEASPDSDIIEGPSRVSLSCPISRKRIKLPVKGQLCKHLQCFDFSNYVHINMRNPTWRCPHCNQPVCYPDIRLDQNMAKILKDVEHNAADVIIDAGGTWKVTKNTGETPEPVREIIHDLEDPMSLLNSGPVVFDLTGDDDAELEVFGDNKVEDRKPCMSDAQGQSNNNNTNKHPSNDDYSSIFDISDVIALDPEILSALGNTAPQPHQASNTGTGQQYSNLSQIPMSIDPMPVPVPFSQTPSPRDRPATTSTVFTIPNPSPQYSQVHASPVTPTGTYLGRTTSPRWNQTYQSQAPPMTTPYTSRKVSVPVTSQSPANVSSFVQSQHVPRVLSQPNNYGVRGLTSSHASTSRQHPSGPTVQSVSRLSDLVDVDLTVPDTSNWRPRMRGSLVPGSHSTALDHMIIRPSQQSQTSTRLNSSQPVQTPSVQTSQAQSPFTTAAYRTETVLGNRNHPVPAPPGIVRPTGPTS
Consider B2, for which the binding result in assay [3] is on record as “binds”.

B3: PIAL1, yeast two-hybrid fusion (protein, UniProt A0A0A7EPL0 1-847)
chain: MVIPATSRFGFRAEFNTKEFQASCISLANEIDAAIGRNEVPGNIQELALILNNVCRRKCDDYQTRAVVMALMISVKSACQLGWFPERETQELLAIIDLMWNGFSCPENVTSCVNSPVTLISQVIERFYPCVKLGHILVSFEAKPESKMMMKDFHISKKMPHSPKQKVGLFVVRTEDISRSNCIVHPQGVSFLLNGKGIDKRVNISMESGPQLPTNVTALLNLGANLLQAIGCFGGSYLIAIAFMDVIPLPNKPLLKDYVHPEVVGSNSDCDIIEGPSRISLSCPISRTRIKLPVKGHVCKHLQCFDFWNYVNMNTRRPSWRCPHCNQSVCYTDIRVDQKLRKILEEVGRNAADVVISADGTWMVETENDEDVELVPETTHDHGDPNSFINLGPTVKNPARDENEMETSTQVEEHNPCLSEIQGPSNDTHRPASDYTMLNQSHTSTNTLPQLPRTLNAFDGQQFVNLPQVINTRDSPASQALPMTFSPTPSPQDILATNAANFGTSMPAAQSSQFQGSHVTSLGNCEGRTSDLMARWNHIYGRVQTQFPPAPLSHHHYSMQNQSPSPAQQRPVPSYIAHPQTFHVNYGENADQRWMPSSIAHPQTLPVNYGGNTNQRPIPSSIAHPQTLPVNYRGNTDHRSTPYSITHLQTLLNYGGNADQRPMPSSITNLQTLPATYGGYAHQRPMSSSITHPRTSPVNYGGTPDQRPMPSSITHPQTLPVSYGGTTDQILNPGGAMGQFSSREFMNLTPANTENWRPQSRMRGSVAPGTGYDHMIIHPTRPVHPQAQTPPAPLSTSYDGADEIQAFIGHPSYPVSNNETQAGTSSLPVAEGLGYSGSFWSMPPETW
Consider B3, for which the binding result in assay [1] and in assay [2] was “binds” in each case.
